Experimental data: PubChem BioAssay AID1347076 (National Center for Advancing Translational Sciences (NCATS), 2019)
Hit rate of the full screen: of about 400,000 compounds, about 13,000 (3.2%) were called active. This list was built around the results that the source calls inconclusive (neither active nor inactive); the mix of calls is not that of the screen. Calls follow the shape of the dose curve; as a rule, active = well fitted cell-killing curve with a large enough effect; inconclusive = small, poorly fitted or top-dose-only effect, or effect the other way; inactive = flat fitted curve, though single readings scatter. Potencies of inconclusive entries are doubtful fits and often do not repeat.

Assay: qHTS assay for MDR1-selective chemotherapeutics: Primary screen using the drug-selected MDR subline cells KB-V1; also: nearly all actives have a fitted effect of over 60% in size
Conditions: KB-V1 MDR cells viability, CellTiter-Glo, 72 h; activity change, negative = cytotoxicity: at 46.1 µM (top of the series)
Summary of the method: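 KB-V1, DMEM (no phenol red) + 10% FBS; cpd pin-transferred, titration series; 72 h, 37 degrees C; CellTiter-Glo, luminescence. Data normalized, curve-fit.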
% is scaled to controls: 0 for no effect and ±100 for the full control effect; potency is read from the fitted curve at half-maximal effect.

Row | Structure (SMILES) | Potency | activity change, negative = cytotoxicity
1 | O=C(CN1C(=O)C2C3C=CC(C3)C2C1=O)NCc1ccco1 (centres undefined) | inconclusive: 23.1 µM [rising, single point] | –
2 | CC(C)OCCCNC(=O)C1CCN(S(=O)(=O)c2ccc3nc4c(c(C(=O)O)c3c2)CCCCC4)CC1 | inconclusive: 11.6 µM [rising, partial curve, poor fit] | –
3 | OCC1(CCc2ccccc2)CCN(Cc2cccn2-c2cccnc2)CC1 | inconclusive: 8.2 µM [cytotoxic, partial curve, poor fit] | –
4 | Cc1ccc(S(=O)(=O)N(CC(=O)Nc2ccccc2C(=O)O)c2ccc(Cl)cc2)cc1 | inactive | –
5 | Cc1cccc(C)c1-n1nnnc1C1(C)CCC(=O)N1CCOc1ccccc1 (centres undefined) | inconclusive: 16.4 µM [cytotoxic, partial curve] | –
6 | CCC(COC(C)=O)Nc1nc2c([nH]1)c(=O)n(C)c(=O)n2C (centres undefined) | inconclusive: 6.51 µM [rising, partial curve, poor fit] | –
7 | CC(C)(C)c1ccc(S(=O)(=O)Nc2ccccn2)cc1 | inactive | –
8 | CCOC(=O)N1CCN(CC(=O)Nc2c(C(=O)OC)[nH]c3ccc(Cl)cc23)CC1 | active: 2.31 µM | –
9 | Cc1ccc(C(=O)NC(=S)NCc2cccnc2)cc1C | inconclusive: 29.1 µM [cytotoxic, single point] | –
10 | CCOC(=O)C1(Cc2cccc(OC)c2)CCCN(C(=O)c2ccc(OC)o2)C1 (centres undefined) | inconclusive: 16.4 µM [cytotoxic, partial curve] | –
11 | Cc1ccccc1C(=O)NNS(=O)(=O)c1ccc(F)cc1 | inactive | –
12 | CCC[n+]1c2ccccc2cc2ccccc21 | active: 20.6 µM | –
13 | Cc1ccc(C)c(NC(=O)/C(C#N)=C/c2ccc(C(C)C)cc2)c1 | inactive | –
14 | CCN(C(=O)COC(=O)c1c2c(nc3ccccc13)/C(=C/c1ccccc1)CC(C)C2)C1CCS(=O)(=O)C1 (centres undefined) | inconclusive: 9.2 µM [cytotoxic, partial curve, poor fit] | –
15 | CCc1ccc(S(=O)(=O)Nc2cc(SCC(=O)O)c(O)c3ccccc23)cc1 | inconclusive: 20.6 µM [cytotoxic, single point] | –
16 | O=C(Nc1cccnc1)c1ccccc1NS(=O)(=O)c1ccc(F)cc1 | active: 20.6 µM | –
17 | CC(C)CNC(=O)c1cc2nc3c(c(C(F)(F)F)n2n1)CCc1ccccc1-3 | inactive | –
18 | O=C1NC(Cc2ccccc2)c2nc3cc(Cl)ccc3c(=O)n2-c2ncccc21 (centres undefined) | inconclusive: 32.6 µM [cytotoxic, single point] | –
19 | Cc1nc2nc(C)c(NS(=O)(=O)c3ccc(CC(C)C)cc3)c(=O)n2[nH]1 | inconclusive: 18.4 µM [rising, single point] | –
20 | CCC(=O)Nc1ccc(-c2cc(-c3ccccc3)nc(-c3ccc(NC(=O)CC)cc3)n2)cc1 | inactive | –
21 | CCOC(Cn1ccc(=O)[nH]c1=O)OCC | – | inconclusive: 12.8%
22 | O=C(NCc1cccnc1)c1cc(C2CCCN(S(=O)(=O)c3cccs3)C2)on1 (centres undefined) | inactive | –
23 | O=C(Nc1ccccc1N1CCCC1)c1cccc(-c2cc3ccccc3oc2=O)c1 | active: 3.66 µM | –

Row | Structure (SMILES) | Potency | activity change, negative = cytotoxicity
24 | COc1ccc2sc(N(CCCN(C)C)C(=O)c3ccc(S(=O)(=O)N(C)Cc4ccccc4)cc3)nc2c1 | inconclusive: 29.1 µM [cytotoxic, single point] | –
25 | CC(Oc1ccccc1)c1ccnc2nc(/N=C/N(C)C)nn12 (centres undefined) | inconclusive: 10.3 µM [cytotoxic, partial curve] | –
26 | COC(=O)C[C@@H]1C[C@H]2c3cc(NC(=O)CC4CC4)ccc3O[C@H]2[C@@H](CO)O1 | inconclusive: 0.82 µM [rising, full curve, poor fit] | –
27 | COc1ccc(/C=C/C(=O)NC(=S)NNC(=O)Cc2cccs2)cc1 | inconclusive: 18.4 µM [cytotoxic, partial curve, poor fit] | –
28 | Cc1cc(C)n2nc(C(=O)OCC(=O)N(CC(C)C)CC(C)C)nc2n1 | inconclusive: 3.26 µM [cytotoxic, partial curve, poor fit] | –
29 | Cc1cc(F)ccc1NC(=O)C1CCN(C(=O)Nc2ccccc2)CC1 | inactive | –
30 | CCn1c(CN2CCOCC2)nc2cc(NC(=O)c3cccc([N+](=O)[O-])c3)ccc21 | inactive | –
31 | CCN(C(=O)COC(=O)COc1ccccc1Cl)c1c(N)n(Cc2ccccc2)c(=O)[nH]c1=O | inconclusive: 20.6 µM [rising, single point] | –
32 | COc1ccc(N(CC(=O)NCc2ccc(Cl)cc2)S(=O)(=O)c2c(C)n[nH]c2C)cc1 | inconclusive: 3.26 µM [rising, partial curve] | –
33 | CCOC(=O)C1=CCN(S(=O)(=O)c2ccc(C)cc2)C1c1cccs1 (centres undefined) | inactive | –
34 | COc1ccc(NC(=O)Cn2cc(C(=O)c3ccccc3OC)c(=O)c3ccc(C)nc32)cc1OC | inactive | –
35 | Cn1c(Cc2nc(-c3cnccn3)no2)nnc1SCC(=O)Nc1ccccc1 | inactive | –
36 | COc1ccc(S(=O)(=O)N2CCOCC2)cc1NC(=O)CN1CCC(Cc2ccccc2)CC1 | active: 11.6 µM | –
37 | COc1ccc(CN2C(=O)C(CC(=O)NCc3cccs3)CC(C(=O)N(C)C)=C2C)cc1 (centres undefined) | inactive | –
38 | COc1ccc(OCC(=O)OCC(=O)NC2CC2)cc1 | inconclusive: 20.6 µM [rising, single point] | –
39 | O=C1COc2ccc(C(=O)COC(=O)c3cc(S(=O)(=O)NCc4ccccc4)ccc3O)cc2N1 | inconclusive: 8.2 µM [rising, partial curve] | –
40 | Nc1ccccc1N=Cc1ccc(-c2cccc(Cl)c2)o1 | inconclusive: 29.1 µM [cytotoxic, single point] | –
41 | CCN1C(=O)C(C)S/C1=N\S(=O)(=O)c1ccc(Cl)s1 (centres undefined) | inactive | –
42 | O=C1C=C(C#Cc2ccc(Oc3ccccc3)cc2)C[C@@H](c2ccc(F)cc2)C1 | inconclusive: 25.9 µM [cytotoxic, single point] | –
43 | Cc1ccc2nc(N3C(=O)C(O)=C(C(=O)c4ccc(C)o4)C3c3ccc(O)cc3)sc2c1 (centres undefined) | inconclusive: 23.1 µM [rising, single point] | –
44 | O=C(Nc1cccnc1)c1ccc(Cl)c(S(=O)(=O)N2CCc3ccccc32)c1 | inconclusive: 13 µM [cytotoxic, partial curve] | –
45 | COc1ccc(C(=O)OCC(=O)Nc2sccc2C(N)=O)cc1[N+](=O)[O-] | inactive | –
46 | COc1cccc(NC(=S)NC(=O)c2cncc(Br)c2)c1 | inactive | –

3 entries from above, in markdown.

| Row | Structure (SMILES) | Potency | activity change, negative = cytotoxicity |
| --- | --- | --- | --- |
| 27 | COc1ccc(/C=C/C(=O)NC(=S)NNC(=O)Cc2cccs2)cc1 | inconclusive: 18.4 µM [cytotoxic, partial curve, poor fit] | – |
| 28 | Cc1cc(C)n2nc(C(=O)OCC(=O)N(CC(C)C)CC(C)C)nc2n1 | inconclusive: 3.26 µM [cytotoxic, partial curve, poor fit] | – |
| 29 | Cc1cc(F)ccc1NC(=O)C1CCN(C(=O)Nc2ccccc2)CC1 | inactive | – |

Carrying on.

Row | Structure (SMILES) | Potency | activity change, negative = cytotoxicity
47 | COc1cccc(/C=N/N2CCOCC2)c1O | inactive | –
48 | CCNc1nc(Cl)nc(NCCOc2ccc(C)cc2)n1 | inconclusive: 1.3 µM [cytotoxic, full curve] | –
49 | COc1ccc(Cl)cc1C(=O)Nc1ccccc1N1CCCCC1 | inactive | –
50 | Cc1ccc(S(=O)(=O)NC(CC(C)C)C(=O)N2CCN(C/C=C/c3ccccc3)CC2)cc1 (centres undefined) | inconclusive: 29.1 µM [cytotoxic, single point] | –
51 | COC(=O)c1cccnc1-n1c(=O)c2cccnc2n(CC(=O)Nc2cccc(C)c2)c1=O | inactive | –
52 | COc1ccc(C(=O)Nc2ccc3nc4c(c(Nc5ccccc5OC)c3c2)CCCC4)c(OC)c1 | inconclusive: 29.1 µM [rising, single point] | –
53 | Cc1cc(S(=O)(=O)N(Cc2ccc(C(C)C)cc2)CC2CCCO2)ccc1-n1cnnn1 (centres undefined) | inconclusive: 20.6 µM [cytotoxic, single point] | –
54 | O=C1CC(c2c(F)cccc2Cl)c2c(ccc3ccccc23)N1 (centres undefined) | inconclusive: 29.1 µM [cytotoxic, single point] | –
55 | CCCN(CCC)c1nc(-c2ccccn2)nc2ccccc12 | active: 2.91 µM | –
56 | O=C(NCc1ccccc1)C1CCCN1C(=O)Nc1ccccc1[N+](=O)[O-] (centres undefined) | inactive | –
57 | O=C(/C=C/Nc1ccccc1O)c1ccco1 | inactive | –
58 | CCCCc1ccc(S(=O)(=O)NCCc2ccncc2)cc1 | inactive | –
59 | Cc1onc(-c2ccccc2Cl)c1C(=O)N1CCN(S(=O)(=O)c2ccc(F)c(F)c2)CC1 | inconclusive: 5.8 µM [cytotoxic, partial curve, poor fit] | –
60 | Nc1cc(-c2ccncc2)c[nH]c1=O | inconclusive: 32.6 µM [cytotoxic, partial curve, poor fit] | –
61 | COC(=O)[C@]12CCCCC=C1N(CCc1ccc(OC)c(OC)c1)C(=O)[C@H](CC(=O)N1CCN(C(=O)c3ccco3)CC1)C2 | inconclusive: 7.31 µM [cytotoxic, partial curve] | –
62 | CC1CC(C)CN(C(=O)c2cccc(S(=O)(=O)N3c4ccccc4CC3C)c2)C1 (centres undefined) | inconclusive: 20.6 µM [cytotoxic, single point] | –
63 | O=C(c1ccco1)N1CCN(C(=O)c2cnn(-c3ccc(F)cc3)c2-n2cccc2)CC1 | inconclusive: 16.4 µM [cytotoxic, single point] | –
64 | O=C(C/C=N\OCc1ccc([N+](=O)[O-])cc1)Nc1ccc(F)cc1F | inconclusive: 0.731 µM [rising, full curve, poor fit] | –
65 | O=c1c2ccccc2nc2n1C(CSCc1ccccc1)CS2 (centres undefined) | inconclusive: 25.9 µM [cytotoxic, single point] | –
66 | CC(C)c1ccc(C(O)c2cnc(C(C)C)n2C)cc1 (centres undefined) | inconclusive: 29.1 µM [cytotoxic, single point] | –
67 | O=C(Nc1ncc(Cc2cccc(Cl)c2Cl)s1)c1ccc([N+](=O)[O-])cc1 | inconclusive: 29.1 µM [cytotoxic, single point] | –
68 | CN1CCN(C(=O)C2=C[C@@H](C3CC3)C[C@@H](OCc3ccc(CO)cc3)O2)CC1 | inconclusive: 0.0092 µM [rising, full curve] | –
69 | Cc1cc(=O)oc2cc(OCC(=O)N3CC(=O)Nc4ccccc43)c(Cl)cc12 | inconclusive: 29.1 µM [rising, single point] | –
